Counter-ions that a name gives are not always drawn. At least one structure is not confirmed: it was looked up by name or label, or the drawing left a doubt.
Target: D3 receptor
Assay: D3 receptor binding, [3H]raclopride displacement
Conditions: 0.5 nM 3H-raclopride; recombinantly produced D3 receptors, BHK 293 cells

For COc1ccc(-c2ccccc2)cc1CN1CCN(c2ncccn2)CC1 [Compound 1, 4phenyl-2-[(4-(2-pyrimidinyl)-piperazinyl)methyl]-anisole dihydrochloride], the IC50 was 329 nM.

Source: US6221871A, “Certain aminomethyl biphenyl, aminomethyl phenyl pyridine and aminomethyl phenyl pyrimidine derivatives; novel dopamine receptor subtype selective ligands” (priority 1999, dated 2001)
